# PMC7819943, “Rice protein-binding microarrays: a tool to detect cis-acting elements near promoter regions in rice”
# By UniProt entry, the sequences of proteins in these tests, tags left out.
# UniProt Q0JBA9, entry or part of it: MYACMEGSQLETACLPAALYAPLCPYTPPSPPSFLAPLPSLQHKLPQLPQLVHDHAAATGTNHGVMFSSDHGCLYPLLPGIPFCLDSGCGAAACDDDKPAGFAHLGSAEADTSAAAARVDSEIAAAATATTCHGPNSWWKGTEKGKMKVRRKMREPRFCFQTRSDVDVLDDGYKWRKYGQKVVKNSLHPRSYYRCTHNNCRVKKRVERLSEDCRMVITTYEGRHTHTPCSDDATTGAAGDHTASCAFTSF
# The other results are listed elsewhere or left out.
# Target: OsWRKY34 (Oryza sativa, UniProt Q0JBA9 1-250)
# Assay: protein-binding microarray (RPBM); PBS, 2% BSA, 51.3 ng/ul salmon testes DNA, 50 uM zinc acetate, 200 nM TF, 25 C, 1 h; high values mean tight binding
# Details: protein: recombinant; tags: N-terminal polyhistidine and DsRed monomer fusion (pET32a); label: CyDye5-dUTP incorporated in the synthesized complementary strand; 3' TTTTT single-stranded linker to array surface; dsDNA, one strand shown
# Outline: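 An Axon 4000B scanner gave the binding signal as per-feature fluorescence intensity in arbitrary units. This followed washing of a custom Agilent array that had been incubated for 1 h at 25 °C with 200 nM protein in PBS, 2% BSA, salmon testes DNA and 50 µM zinc acetate. The proteins were transcription factors fused at the N-terminus to polyhistidine and DsRed, expressed in E. coli BL21-CodonPlus and purified on Ni–NTA.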
row,Sequence,binding signal
1,GCCACCCCGGCCACCTCAGCGCCCCATCCACGTCTCCGACCGGAGTCACCTAGTGCAG,8650 fluorescence intensity (a.u.)
2,AATTGCTCACGATAACATGGATCTGTCCTCGTTTTTCTTTCGGAGTCACCTAGTGCAG,11200 fluorescence intensity (a.u.)
3,TTGGTTGGATGGATGACGTTGCTGTGGCCGGCTGTTTCCACGGAGTCACCTAGTGCAG,8280 fluorescence intensity (a.u.)
4,GAATTTTTTTTTCGTTTTTTTCAATTCGTTATTCTTTTCTCGGAGTCACCTAGTGCAG,12300 fluorescence intensity (a.u.)
5,TGACCCATCTCATATCTTCATCTTCCTTCTCCTTCTCTACCGGAGTCACCTAGTGCAG,10500 fluorescence intensity (a.u.)
6,GACACAACCACATAGGCTGACATCTTGTATATTGGGACCTCGGAGTCACCTAGTGCAG,9550 fluorescence intensity (a.u.)
7,TGGCTTCCTACATCTACTCTATATTTATGCTCCTACAGAACGGAGTCACCTAGTGCAG,9760 fluorescence intensity (a.u.)
8,TCCGATCCGTTTGTTGTTGTTGCCGTGGCGTGCCTTGTGACGGAGTCACCTAGTGCAG,9520 fluorescence intensity (a.u.)
9,GGCCTCACGATGACACCTCGCTGCACCGCGCACCACAAACCGGAGTCACCTAGTGCAG,9380 fluorescence intensity (a.u.)
10,AAATAGACTCACAGAACAGCAGCTTCCATCACACTAACACCGGAGTCACCTAGTGCAG,9340 fluorescence intensity (a.u.)
11,CGCCCTCGCCTGGATCTACCCGGCCCGCCGTCCCATTCACCGGAGTCACCTAGTGCAG,8460 fluorescence intensity (a.u.)
12,ACTAATTATAGTATAATTTTTTATTTCTGTTACAACTTATCGGAGTCACCTAGTGCAG,8860 fluorescence intensity (a.u.)
13,CGCGTTTCAGCTCCTTTTTCGGCTTCTTTTTTGGCGATTTCGGAGTCACCTAGTGCAG,11400 fluorescence intensity (a.u.)
14,GTTCTACCAGCAGGTAATTTCACACTTCTTAATTGCCCTCCGGAGTCACCTAGTGCAG,10400 fluorescence intensity (a.u.)
15,TCTATATAGTTTTTCTGTTTTCGCATTTTAGTAAAATATTCGGAGTCACCTAGTGCAG,8100 fluorescence intensity (a.u.)
16,AGGGCTATATATATATATATACGTACTAACTTTTTCTTACCGGAGTCACCTAGTGCAG,8450 fluorescence intensity (a.u.)
17,TGCGGTTTGTTTCGTGGTGTGAGATATCTGGGATTTGTTTCGGAGTCACCTAGTGCAG,9250 fluorescence intensity (a.u.)
18,TTGCGTCCCTGCTCGTACACGGCGTTGAGCGTCTCCTTCACGGAGTCACCTAGTGCAG,14600 fluorescence intensity (a.u.)
19,TCACCTGCCAGCTGTCGCCGTCGTCTCGCCTCACCTGGGTCGGAGTCACCTAGTGCAG,9100 fluorescence intensity (a.u.)
20,CCAATCGTTTGCTTCTTCTTCTTCCTCTTCTCGCTGTTCTCGGAGTCACCTAGTGCAG,8070 fluorescence intensity (a.u.)
21,AAACCCCATTTTCTTTATATACTCCGGATCTCTGCGCCACCGGAGTCACCTAGTGCAG,8440 fluorescence intensity (a.u.)

row,Sequence,binding signal
1,ATTTTTTGGTATACTAACTGTGGGTATAAATTTAGTTCGTCGGAGTCACCTAGTGCAG,8380 fluorescence intensity (a.u.)
2,TGCTAGGTCACATTTGTCCTTCCGTTGGTTCCATTCCTACCGGAGTCACCTAGTGCAG,8280 fluorescence intensity (a.u.)
3,TCCTGAAGCATATGTTGTATTCTCTTATGATGTTACCTTTCGGAGTCACCTAGTGCAG,8200 fluorescence intensity (a.u.)
4,TCTCATATCGTGTTCGGGCCCGTCTGCACTCTCCACTTCCCGGAGTCACCTAGTGCAG,8910 fluorescence intensity (a.u.)
5,ATAAGTTCACCTGACATTCCTCAATTTTACGTCTGATCCCCGGAGTCACCTAGTGCAG,9930 fluorescence intensity (a.u.)
6,CCCTGTACAATATACGTTGCTGAAATTTGCAAGCCATGCCCGGAGTCACCTAGTGCAG,8480 fluorescence intensity (a.u.)
7,CTTCTTTGTCTTTATCAACTCTTACTTCAAAAACCTTTTACGGAGTCACCTAGTGCAG,9000 fluorescence intensity (a.u.)
8,GCCGCCGCCGCCGCCGCCGCCATTTTCCTTTTAATTATTTCGGAGTCACCTAGTGCAG,8160 fluorescence intensity (a.u.)
9,GTATGACGCCGTTGACTTTTCGATCAACGTTTGACTATTTCGGAGTCACCTAGTGCAG,25300 fluorescence intensity (a.u.)
10,CGCCGCCGCCGCCGCCGCCGCCGCTGCCCGTCCCCGCAACCGGAGTCACCTAGTGCAG,8940 fluorescence intensity (a.u.)
11,GCAATAGTTGGATGGGGAAGTTCTTAGGCACTGTCACATACGGAGTCACCTAGTGCAG,8620 fluorescence intensity (a.u.)
12,ACACATCACCTTTTATCTCATCACATGTCTTTGTACTATTCGGAGTCACCTAGTGCAG,8300 fluorescence intensity (a.u.)
13,AGTACTATTTACTAATGCTGTCCCGTTTTACCCACCATCGCGGAGTCACCTAGTGCAG,12300 fluorescence intensity (a.u.)
14,CTCTTCCACACAACACGCCACGCCACGCCTCGCCGCGCCGCGGAGTCACCTAGTGCAG,8430 fluorescence intensity (a.u.)
15,GCTGTTGACTTTTTCTCACGTGATTGACCTTTCGTCTTATCGGAGTCACCTAGTGCAG,28400 fluorescence intensity (a.u.)
16,TAATATTCGTGCGTGGGGTTGATCGAAATAGACTGAACTCCGGAGTCACCTAGTGCAG,9390 fluorescence intensity (a.u.)
17,ATATACTTTCATGTACACATATAGTTTTACATATTTTACACGGAGTCACCTAGTGCAG,8310 fluorescence intensity (a.u.)
18,CACTAAACCAAACATGTTATAATCGTAAGCACATCTGACACGGAGTCACCTAGTGCAG,8530 fluorescence intensity (a.u.)
19,GATAAGCGTAAGTGGGCCAGGCTTTCCATTTGCCAGCCGGCGGAGTCACCTAGTGCAG,8350 fluorescence intensity (a.u.)
20,GCCGCGCGCTCCCGCTCCTGTTGCTGAGTCCAAGTCCACACGGAGTCACCTAGTGCAG,11800 fluorescence intensity (a.u.)
21,CTTCTTCTTCTTCTTCTTCTTCTTCTTCTTCTTCTTCTTCCGGAGTCACCTAGTGCAG,9450 fluorescence intensity (a.u.)

# Copied from the list:
# In binding signal, CACTAAACCAAACATGTTATAATCGTAAGCACATCTGACACGGAGTCACCTAGTGCAG is entered as 8530 fluorescence intensity (a.u.)
# In binding signal, ACACATCACCTTTTATCTCATCACATGTCTTTGTACTATTCGGAGTCACCTAGTGCAG is entered as 8300 fluorescence intensity (a.u.)
# In binding signal, CTTCTTTGTCTTTATCAACTCTTACTTCAAAAACCTTTTACGGAGTCACCTAGTGCAG is entered as 9000 fluorescence intensity (a.u.)
